This passage reports binding results from patent US20250206834A1.

Amino acid sequences for entries named in this document (tags omitted). Residues count along the entry.
UniProt Q07011, residues 24-255: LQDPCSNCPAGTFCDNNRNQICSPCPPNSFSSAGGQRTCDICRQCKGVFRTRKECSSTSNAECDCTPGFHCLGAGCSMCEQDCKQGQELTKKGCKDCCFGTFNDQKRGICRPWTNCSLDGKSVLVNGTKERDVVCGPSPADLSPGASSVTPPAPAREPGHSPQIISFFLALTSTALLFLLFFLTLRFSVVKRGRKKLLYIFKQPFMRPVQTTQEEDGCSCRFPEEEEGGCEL

For experiment [1], the target named is human 4-1BB (human) (UniProt Q07011). The experiment in a line: flow cytometry, CHO-K1 cells overexpressing human 4-1BB. A general note: A flow cytometer gives signals particle by particle.
The target is the same in experiment [2]. Put plainly: flow cytometry, CHO-K1 cells overexpressing human 4-1BB (FIG. 5).

No constants are given. Whether binding was seen depends on the method and setting. Some binding calls cover weakened binding; strength is not graded here.

B1: optimized bispecific antibody with 263 huNb-1-3_2 (bispecific antibody, not shown: a dimerising Fc or GST; large carriers)
heavy (part 1 of 2): EVQLVESGGGVVQPGRSLRLSCSASGFDFTTYWMSWVRQAPGKGLEWIGEIHPDSSTINYAPSLKDRFTISRDNAKNTLFLQMDSLRPEDTGVYFCASLYFGFPWFAYWGQGTPVTVSS
heavy (part 2 of 2): GGGGSGGGGSGGGGSGGGGSEVQLVESGGGLVQPGGSLRLSCAASGFTFSSSAMSWARQAPGKGFEWVSGIYSGGSTYYTESVKDRFTISRDNAKNTVYLQMNSLKPEDTAVYYCATWGTLRFGVWAEYDHWGQGTLVTVSS
light: DIQLTQSPSSLSASVGDRVTITCKASQDVGTSVAWYQQKPGKAPKLLIYWTSTRHTGVPSRFSGSGSGTDFTFTISSLQPEDIATYYCQQYSLYRSFGQGTKVEIK
On to B1, for which the binding entry in experiment [1] and in experiment [2] was “binds” each time.
